{"source": "paper PMC5706888", "target": "T1, HA-tagged UL21 of bovine herpesvirus 1 (Bovine herpesvirus 1 (strain IBRV HB06)) (UniProt K4P3K8)", "T1 sequence": "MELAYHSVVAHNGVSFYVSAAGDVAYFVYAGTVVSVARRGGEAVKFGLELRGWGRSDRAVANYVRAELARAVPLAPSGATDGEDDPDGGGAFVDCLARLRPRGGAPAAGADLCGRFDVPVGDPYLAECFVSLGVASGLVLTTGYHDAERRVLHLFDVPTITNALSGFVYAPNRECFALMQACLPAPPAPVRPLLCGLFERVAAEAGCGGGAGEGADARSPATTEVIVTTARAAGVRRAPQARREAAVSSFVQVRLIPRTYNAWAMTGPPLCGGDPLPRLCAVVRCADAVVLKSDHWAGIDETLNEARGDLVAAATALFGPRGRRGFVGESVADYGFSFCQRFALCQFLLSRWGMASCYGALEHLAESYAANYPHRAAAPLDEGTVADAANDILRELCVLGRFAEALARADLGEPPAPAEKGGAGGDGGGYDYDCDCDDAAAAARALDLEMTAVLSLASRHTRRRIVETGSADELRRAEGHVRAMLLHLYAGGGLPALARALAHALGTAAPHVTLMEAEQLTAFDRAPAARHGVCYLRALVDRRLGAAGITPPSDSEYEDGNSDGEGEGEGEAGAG", "test": "co-IP; lysates of MDBK cells infected with vBoHV-1-UL21-HA or wild-type BoHV-1, or mock infected (MOI 3, 18 hpi; lysis buffer with 1% Triton X-100, 1 mM EDTA, 50 mM Tris, 150 mM NaCl) incubated with anti-HA monoclonal antibody magnetic agarose beads for 5 to 6 h at 4°C; five washes; Western blot with antisera against UL16 and UL21 and with anti-HA", "note": "No constants are given. Whether binding was seen depends on the method and setting. In cells and extracts the contact can be indirect. Binding calls can cover weak binding; strength is not graded here. Tags and fused reporters may be left off the sequences shown."}
{"substance": "UL16 of bovine herpesvirus 1", "values": [{"measurement": "binding", "value": "binds"}]}
